Data as given in PubChem BioAssay AID1508588 (Peter MacCallum Cancer Centre, 2020)

Test: 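Knock-downs boosting vemurafenib effects on melanoma cell growth or lactate release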 (primary screen)
Cell system: human WM266.4 melanoma cells (BRAF V600 mutant)
Reagent: siRNA pool against human genes, 40 nM
Time to read-out: 96 h from transfection to read-out
Treatment: vemurafenib 300 nM (about IC25), added 48 h after transfection, for 48 h; comparison arm got DMSO vehicle only
Measured: 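Cell gain (DAPI nuclei at end minus before drug, mean of two replicates) and medium lactate by absorbance per cell, both as ratio to non-targeting siRNA, also grouped into fold-change classes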
Direction: cell gain with vemurafenib: higher = more cell gain than with non-targeting siRNA; lactate per cell with vemurafenib: higher = more lactate made per cell
Hit rule: 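a knock-down counts as enhancing when its fold-change classes with vehicle and with vemurafenib, taken together, show a stronger drug effect on cell gain or lactate per cell; exact class pairs not stated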
Calls: active = enhances vemurafenib effect; inactive = no enhancement seen
The deposit covers about 18,000 reagents; this is a random part of them. In the full data, 790 (4.4%) were called active. 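Calls rest on a combination of fold-change classes in drug and vehicle arms, not all shown here.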 Entries without a mark were called inactive.

gene | cell gain with vemurafenib | lactate per cell with vemurafenib
IL1RAPL2 | 0.91 | 0.74
ALG9 | 1.03 | 1
AFG2A | 0.73 | 0.8
HIC2 | 0.5 | 0.83
COG2 | 0.91 | 0.66
EWSR1 | 0.73 | 0.64
KIF2C | 0.96 | 0.94
SMR3A | 0.35 | 1.4
DEFB118 | 0.42 | 0.88
GTPBP10 | 0.71 | 0.7
KIR3DL3 | 1.17 | 0.44
ATG4B | 0.55 | 0.46
FRMD3 | 0.29 | 0.78
KPNA5 | 0.28 | 0.97
MFSD6 | 1.14 | 1.42
NCS1 | 0.6 | 0.97
ZDHHC15 | 0.89 (active) | 0.45
TMLHE | 0.86 | 0.99

Taken from above:
SMR3A, lactate per cell with vemurafenib → 1.4
Under “lactate per cell with vemurafenib”, MFSD6 reads 1.42
Value of EWSR1 under “cell gain with vemurafenib”: 0.73

The listing continues:
gene | cell gain with vemurafenib | lactate per cell with vemurafenib
ENTR1 | 1.49 | 0.64
THG1L | 0.64 | 0.73
SP7 | 0.07 | 1.04
LBX2 | 0.93 | 0.59
PARP14 | 1.06 | 0.68
OAZ1 | 0.62 | 0.85
CCDC93 | 0.32 | 1.45
CES3 | 0.47 | 0.77
RER1 | 0.52 | 0.88
P2RX4 | 0.67 | 0.57
MCM3AP | 0.92 | 0.8
FBXW12 | 0.65 | 1.41
CUL4B | 0.35 | 1.52
PIM1 | 0.7 | 1.04
DEFB124 | 0.49 | 1.41
ZNF491 | 0.66 | 1.08
